Laboratory results: PubChem BioAssay AID504808 (Drosophila RNAi Screening Center, 2011)
In all, the deposit lists about 21,000 reagents; shown is a random part of those with a known target gene and a result. Over the whole deposit, 18 (0.084%) are marked active. 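Raw counts without plate normalisation, one of two replicates; the ratio scores behind the calls were not deposited.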 Names joined by + are all predicted targets of the reagent. Not given: the amount of reagent, the time to read-out.

Assay: 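Chromatin factors that keep E2F targets switched off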 (primary screen)
Cell system: Drosophila S2 cells
Reagents: long dsRNA against Drosophila genes
Measurement: 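Dual luciferase plate measurements; E2F-specific signal taken as firefly over Renilla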
Reading the numbers: E2F firefly: higher = more E2F reporter activity; Renilla normaliser: higher = more normaliser reporter signal
Call rule: 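Called active if the normalised E2F reporter went up by over 50%; the cutoff is arbitrary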

no.	gene	amplicon	E2F firefly, rep 1	Renilla normaliser, rep 1	call
1	en (engrailed)	DRSC07609	1.01e5	4380	inactive
2	CG4950	DRSC10463	1.53e5	7531	inactive
3	svr (silver)	DRSC17293	67699	2594	inactive
4	svr (silver)	DRSC18841	51236	3765	inactive
5	5-HT1A (5-hydroxytryptamine (serotonin) receptor 1A)	DRSC05030	1.61e5	5175	inactive
6	Nelf-A (Negative elongation factor A)	DRSC15903	67616	3583	inactive
7	CG42534	DRSC14722	89722	4594	inactive
8	CG42534	DRSC14759	75560	4349	inactive
9	CG42534	DRSC16072	1.14e5	5424	inactive
10	mam (mastermind)	DRSC05468	78922	3135	inactive
11	mam (mastermind)	DRSC07648	74082	3439	inactive
12	Np (Notopleural)	DRSC06089	1.49e5	4833	inactive
13	Np (Notopleural)	DRSC07094	1.53e5	5348	inactive
14	CG15213	DRSC10213	1.03e5	4259	inactive
15	Rif1 (Rap1 interacting factor 1)	DRSC05593	1.01e5	4994	inactive
16	CG6026	DRSC15950	1.17e5	8090	inactive
17	rb (ruby)	DRSC18826	77611	4595	inactive
18	Wdr59 (WD repeat domain 59)	DRSC02771	89756	4362	inactive
19	psh (persephone)	DRSC19990	1.60e5	6253	inactive
20	Dhfr (Dihydrofolate reductase)	DRSC16646	1.09e5	5703	inactive
21	CG8372	DRSC03086	92552	4096	inactive
22	CG13127	DRSC02223	1.57e5	5287	inactive
23	CG30196	DRSC04156	1.11e5	4513	inactive
24	Ppr-Y	DRSC20892	82078	2761	inactive
25	CG5181	DRSC02825	1.02e5	3869	inactive
26	Ccdc58 + CG34116	DRSC10105	1.34e5	7031	inactive
27	CG14327	DRSC14806	1.05e5	5510	inactive
28	CG7054	DRSC16185	63513	3061	inactive
29	m (miniature)	DRSC20181	66378	4795	inactive
30	CG4911	DRSC10456	68387	3341	inactive
31	CG10700	DRSC02096	96511	4365	inactive
32	Gr85a (Gustatory receptor 85a)	DRSC12760	78509	4681	inactive
33	key (kenny)	DRSC04285	95593	3993	inactive
34	CG5597	DRSC04517	84243	3527	inactive
35	Nf-YB (Nuclear factor Y-box B)	DRSC02057	87763	4367	inactive
36	Mst33A	DRSC03371	1.46e5	5218	inactive
37	Kaz-m1 (Kazal-type protease inhibitor m1)	DRSC16990	1.07e5	5760	inactive
38	CG5516	DRSC15826	1.05e5	4880	inactive
39	mRpL43 (mitochondrial ribosomal protein L43)	DRSC04508	1.18e5	5169	inactive
40	CG13436	DRSC06396	97215	4129	inactive
41	CG31636	DRSC02276	1.39e5	5457	inactive
42	CG11951	DRSC14442	1.42e5	6533	inactive
43	CG31161	DRSC16144	90503	5297	inactive
44	Srlp (Spliceosome-ribosome linker protein)	DRSC15890	98621	5589	inactive
45	GluClalpha (Glutamate-gated chloride channel subunit alpha)	DRSC16680	1.38e5	7330	inactive
46	CG14797	DRSC17955	1.24e5	6355	inactive
47	CG11178	DRSC19396	7693	776	inactive
48	CG1075 (retired record)	DRSC12144	1.33e5	6824	inactive
49	prage	DRSC17957	87624	4322	inactive
50	prage	DRSC17958	1546	868	inactive
51	prage	DRSC18490	96244	5705	inactive
52	prage	DRSC18497	1.25e5	5864	inactive
53	CG4287	DRSC15559	62879	3007	inactive
54	Gr2a (Gustatory receptor 2a)	DRSC18603	87001	4663	inactive
55	Spn (Spinophilin)	DRSC07986	1.38e5	4853	inactive
56	Spn (Spinophilin)	DRSC08490	81702	3555	inactive
57	Spn (Spinophilin)	DRSC08491	89656	4213	inactive
58	ninaG	DRSC16102	1.50e5	6830	inactive
59	CG14423	DRSC17920	1.06e5	5935	inactive
60	CG15561	DRSC15100	99950	5644	inactive
61	CG33303	DRSC02848	1.64e5	5958	inactive
62	CG16782	DRSC18118	1.08e5	5394	inactive
63	JIL-1 (JIL-1 kinase)	DRSC11200	65059	3051	inactive
64	CG13692	DRSC00361	1.72e5	6705	inactive
65	CG10013	DRSC14175	67327	3214	inactive
66	Lsd-2 (Lipid storage droplet-2)	DRSC20143	8338	776	inactive
67	CG8197	DRSC07105	1.39e5	4554	inactive
68	salm (spalt major)	DRSC03606	1.37e5	5041	inactive
69	CG31091	DRSC15933	1.13e5	5693	inactive
70	Mes2 (Mesoderm-expressed 2)	DRSC11593	91399	4154	inactive
71	Mes2 (Mesoderm-expressed 2)	DRSC11632	63724	3737	inactive
72	PH4alphaSG1 (prolyl-4-hydroxylase-alpha SG1)	DRSC15080	1.28e5	6691	inactive
73	Kdm4B (Lysine demethylase 4B)	DRSC06862	4265	171	inactive
74	CG11227	DRSC20476	1.38e5	7033	inactive
75	ERp60 (Endoplasmic reticulum p60)	DRSC07309	156	46	inactive
76	CG13713	DRSC08322	1.05e5	4449	inactive
77	dib (disembodied)	DRSC08711	66332	3743	inactive
78	lmd (lame duck)	DRSC15618	70524	3496	inactive
79	Tap42 (Two A-associated protein of 42kDa)	DRSC02967	1.07e5	4255	inactive
80	CG15601	DRSC19670	1.52e5	6479	inactive
81	Dnz1 (DNZDHHC/NEW1 zinc finger protein 11)	DRSC03317	89194	3569	inactive
82	dtn (detonator)	DRSC17939	63476	4049	inactive
83	vis + achi	DRSC07277	150	33	inactive
84	CG43345	DRSC03164	81212	3401	inactive

Taken from above:
Under “Renilla normaliser, rep 1”, Gr85a (Gustatory receptor 85a) [DRSC12760] is entered as 4681
CG11227 [DRSC20476], E2F firefly, rep 1 = 1.38e5
CG8372 [DRSC03086], call: inactive
Spn (Spinophilin) [DRSC08491], call → inactive
Value of CG11951 [DRSC14442] under “call”: inactive
Entry for Spn (Spinophilin) [DRSC07986] under “Renilla normaliser, rep 1”: 4853
